Results: patent US20230357334A1 (ALEPHOSON BIOPHARMACEUTICALS LTD., priority 2020, published 2023)

Experiment: peptide synthesis
Settings: whole synthesis, 214 nm

| Sequence | final HPLC purity [%] |
| --- | --- |
| RQIKIWFWWRRMKWKK | 96.16 |
| RQIKIWFWNRRMKWKK | 98.11 |
| RWIKIWFWWRRMKWKK | 97.65 |
| RQIKIWFQWRRMKWKK | 97.84 |
| RWIKIWFWNRRMKWKK | 95.71 |
| RWIKIWFQWRRMKWKK | 99.22 |
| RWIKIWFQNRRMKWKK | 95.94 |

Plain letter strings leave the end groups untold.
